Measured values reported in patent US20240024501A1.
These are yes or no findings as the source states them, for the method shown. Some results given as binding are weak or reduced against the parent protein; the word gives no strength.

Amino acid sequences for entries named in this document (tags omitted). Residues count along the entry.
UniProt Q15116, residues 25-167: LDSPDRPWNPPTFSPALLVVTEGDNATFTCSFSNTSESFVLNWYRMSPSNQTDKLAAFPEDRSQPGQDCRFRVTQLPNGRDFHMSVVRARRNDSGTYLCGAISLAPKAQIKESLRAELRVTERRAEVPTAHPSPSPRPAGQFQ

B1: PD1-IL2-R07-A09 (scFv)
scFv: QVQLVQSGAEVKKPGASVKVSCKASGYTFTSYYMHWVRQAPGQGLEWMGIINPSDGSTTYAQSFQGRVTMTRDTSTSTVYMELSSLRSEDTAVYYCASGWDVWGQGTLVTVSSASGGGGSGGGGSGGGGSHASDIVMTQSPDSLAVSLGERATINCKSSQSVFSSANNKNYLAWYQQKPGQPPKLLIYWASTRESGVPDRFSGSGSGTDFTLTISSLQAEDVAVYYCQQYFGTPVTFGGGTKVEIK
B2: PD1-IL2-R02-C02 (scFv)
scFv: QVQLVQSGAEVKKPGVSVKVSCKASGYTFPRSYIHWVRQAPGQGLEWMGWINPHSGDTYYAQNFQGRVTMTRDTSTSTVYMELSSLRSEDTAVYYCARDTGLGYYYGSGDFDYWGQGTLVTVSSASGGGGSGGGGSGGGGSHASDIQMTQSPSSLSASVGDRVTITCRASQSISRYLNWYQQKPGKAPKLLIYTASSLQSGVPSRFSGSGSGTDFTLTISSLQPEDFATYYCQQANRFPLTFGPGTKVDIK
B3: PD1-IL2-R02-C03 (scFv)
scFv: QVQLVQSGAEVKKPGASVKVSCKASGYTFPRYHIHWVRQAPGQGLEWMGMINPSGGTTTYAQKFQGRVTMTRDTSTSTVYMELSSLRSEDTAVYYCARDTGLGYYYGSGDFDYWGQGTLVTVSSASGGGGSGGGGSGGGGSHASDIQMTQSPSSLSASVGDRVTITCRASQSISSWLAWYQQKPGKAPKLLIYAASSLQSGVPSRFSGSGSGTDFTLTISSLQPEDFATYYCQQSHSFPLTFGGGTKVEIK

target: PD-1 (human) (UniProt Q15116); test: HTRF

binding	Binder
binds	B1
binds	B2
binds	B3
